Assay results published in the supplement of paper PMC10849652.
This is one part of the list.

By UniProt entry, the sequences of proteins in these tests, tags left out. Where a name states a change or a piece, a line headed by the entry shows the natural chain unless it says otherwise.
UniProt Q9UPU5: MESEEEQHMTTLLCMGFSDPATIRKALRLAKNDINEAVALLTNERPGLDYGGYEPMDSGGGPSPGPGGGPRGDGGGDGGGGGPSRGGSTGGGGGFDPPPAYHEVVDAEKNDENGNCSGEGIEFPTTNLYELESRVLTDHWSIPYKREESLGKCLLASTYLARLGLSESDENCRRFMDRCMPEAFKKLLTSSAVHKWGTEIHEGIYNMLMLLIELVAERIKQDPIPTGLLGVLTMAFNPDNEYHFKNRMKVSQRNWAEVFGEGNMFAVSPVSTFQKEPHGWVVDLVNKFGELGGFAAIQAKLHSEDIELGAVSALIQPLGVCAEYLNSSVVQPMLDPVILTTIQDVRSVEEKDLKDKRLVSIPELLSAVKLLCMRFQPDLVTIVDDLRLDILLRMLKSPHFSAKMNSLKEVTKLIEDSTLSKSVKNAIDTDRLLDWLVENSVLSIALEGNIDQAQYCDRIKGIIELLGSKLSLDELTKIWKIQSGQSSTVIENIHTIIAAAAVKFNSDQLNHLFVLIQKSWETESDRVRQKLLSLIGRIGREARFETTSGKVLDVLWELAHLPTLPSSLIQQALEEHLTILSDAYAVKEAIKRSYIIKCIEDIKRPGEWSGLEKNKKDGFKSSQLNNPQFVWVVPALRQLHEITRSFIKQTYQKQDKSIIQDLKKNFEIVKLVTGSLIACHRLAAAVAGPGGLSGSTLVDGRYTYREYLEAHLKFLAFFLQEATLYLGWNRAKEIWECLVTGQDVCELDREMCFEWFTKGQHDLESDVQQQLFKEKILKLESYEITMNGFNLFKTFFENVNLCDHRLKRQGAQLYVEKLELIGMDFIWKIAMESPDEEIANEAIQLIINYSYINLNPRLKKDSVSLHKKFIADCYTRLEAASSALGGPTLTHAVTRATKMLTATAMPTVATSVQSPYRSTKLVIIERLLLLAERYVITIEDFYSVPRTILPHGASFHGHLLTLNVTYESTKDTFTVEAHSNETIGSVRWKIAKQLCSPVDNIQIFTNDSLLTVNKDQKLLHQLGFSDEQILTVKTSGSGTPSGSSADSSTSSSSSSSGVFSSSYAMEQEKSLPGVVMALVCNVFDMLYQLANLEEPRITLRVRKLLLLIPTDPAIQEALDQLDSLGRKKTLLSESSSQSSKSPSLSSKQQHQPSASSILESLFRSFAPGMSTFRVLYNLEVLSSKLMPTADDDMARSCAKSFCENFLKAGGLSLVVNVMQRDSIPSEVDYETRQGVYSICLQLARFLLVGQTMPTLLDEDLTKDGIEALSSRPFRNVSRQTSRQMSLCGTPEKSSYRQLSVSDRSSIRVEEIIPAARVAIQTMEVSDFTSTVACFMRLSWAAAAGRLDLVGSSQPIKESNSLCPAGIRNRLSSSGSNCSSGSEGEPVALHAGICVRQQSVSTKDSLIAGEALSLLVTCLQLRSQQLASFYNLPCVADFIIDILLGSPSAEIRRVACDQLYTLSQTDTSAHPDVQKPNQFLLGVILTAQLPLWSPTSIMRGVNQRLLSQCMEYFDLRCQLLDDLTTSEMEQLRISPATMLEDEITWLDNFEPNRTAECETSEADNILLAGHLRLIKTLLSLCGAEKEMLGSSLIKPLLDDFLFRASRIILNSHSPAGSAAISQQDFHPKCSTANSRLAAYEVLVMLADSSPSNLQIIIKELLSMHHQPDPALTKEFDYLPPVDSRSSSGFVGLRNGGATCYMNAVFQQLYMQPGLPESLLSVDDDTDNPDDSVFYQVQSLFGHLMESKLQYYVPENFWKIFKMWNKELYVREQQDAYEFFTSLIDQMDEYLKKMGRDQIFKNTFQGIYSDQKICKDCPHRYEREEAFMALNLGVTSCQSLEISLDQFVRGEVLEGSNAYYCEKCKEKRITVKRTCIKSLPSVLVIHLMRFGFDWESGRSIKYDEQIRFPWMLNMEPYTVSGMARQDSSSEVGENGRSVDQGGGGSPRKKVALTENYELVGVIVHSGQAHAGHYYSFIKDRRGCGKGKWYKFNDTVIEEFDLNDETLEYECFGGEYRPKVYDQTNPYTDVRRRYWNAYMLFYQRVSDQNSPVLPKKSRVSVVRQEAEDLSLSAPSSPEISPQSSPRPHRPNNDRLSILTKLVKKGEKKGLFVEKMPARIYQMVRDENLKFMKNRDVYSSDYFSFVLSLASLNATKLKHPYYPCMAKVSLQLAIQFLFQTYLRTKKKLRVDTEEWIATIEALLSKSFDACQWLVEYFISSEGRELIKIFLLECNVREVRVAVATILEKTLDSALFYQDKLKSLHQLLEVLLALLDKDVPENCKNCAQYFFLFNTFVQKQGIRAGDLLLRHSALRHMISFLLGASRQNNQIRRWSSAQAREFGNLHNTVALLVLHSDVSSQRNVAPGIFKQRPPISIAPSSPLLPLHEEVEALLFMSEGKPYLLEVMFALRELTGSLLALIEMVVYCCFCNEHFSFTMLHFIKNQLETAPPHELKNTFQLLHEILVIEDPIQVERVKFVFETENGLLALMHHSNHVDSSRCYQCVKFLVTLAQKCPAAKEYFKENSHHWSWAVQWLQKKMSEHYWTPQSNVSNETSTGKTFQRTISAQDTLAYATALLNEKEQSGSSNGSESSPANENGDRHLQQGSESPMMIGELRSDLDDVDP
UniProt P55072, whole entry, looked up: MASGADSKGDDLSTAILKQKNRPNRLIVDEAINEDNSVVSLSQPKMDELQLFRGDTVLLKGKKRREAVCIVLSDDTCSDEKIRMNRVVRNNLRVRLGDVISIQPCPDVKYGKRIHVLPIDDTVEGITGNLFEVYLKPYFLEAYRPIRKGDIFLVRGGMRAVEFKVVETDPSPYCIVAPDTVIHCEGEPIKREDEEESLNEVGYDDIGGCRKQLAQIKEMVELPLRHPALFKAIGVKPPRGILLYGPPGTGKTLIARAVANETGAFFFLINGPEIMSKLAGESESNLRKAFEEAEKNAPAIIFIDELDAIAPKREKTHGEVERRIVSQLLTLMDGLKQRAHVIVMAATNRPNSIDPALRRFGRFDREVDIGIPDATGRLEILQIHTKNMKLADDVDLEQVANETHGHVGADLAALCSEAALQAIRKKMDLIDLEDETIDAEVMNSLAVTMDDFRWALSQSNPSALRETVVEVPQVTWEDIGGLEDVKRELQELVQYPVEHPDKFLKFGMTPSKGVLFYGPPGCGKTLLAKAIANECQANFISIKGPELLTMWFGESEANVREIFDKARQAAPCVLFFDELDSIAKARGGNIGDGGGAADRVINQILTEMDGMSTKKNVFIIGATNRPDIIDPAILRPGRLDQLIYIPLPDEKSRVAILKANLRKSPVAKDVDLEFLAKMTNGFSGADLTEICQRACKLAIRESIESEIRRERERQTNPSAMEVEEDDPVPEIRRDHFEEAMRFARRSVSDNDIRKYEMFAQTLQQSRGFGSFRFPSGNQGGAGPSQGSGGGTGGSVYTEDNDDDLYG
UniProt P31930: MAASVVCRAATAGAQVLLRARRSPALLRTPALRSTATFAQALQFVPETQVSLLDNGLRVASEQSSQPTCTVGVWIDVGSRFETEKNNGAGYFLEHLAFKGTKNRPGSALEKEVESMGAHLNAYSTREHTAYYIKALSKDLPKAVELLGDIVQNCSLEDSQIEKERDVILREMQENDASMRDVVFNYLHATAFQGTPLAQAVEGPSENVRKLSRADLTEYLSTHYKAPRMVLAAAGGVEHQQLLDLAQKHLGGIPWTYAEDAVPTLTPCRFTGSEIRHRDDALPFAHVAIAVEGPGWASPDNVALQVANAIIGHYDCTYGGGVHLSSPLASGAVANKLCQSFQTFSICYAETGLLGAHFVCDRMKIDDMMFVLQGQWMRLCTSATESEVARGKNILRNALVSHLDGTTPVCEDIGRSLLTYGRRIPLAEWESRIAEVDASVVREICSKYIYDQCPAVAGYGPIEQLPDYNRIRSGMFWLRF
UniProt Q9P2Y5: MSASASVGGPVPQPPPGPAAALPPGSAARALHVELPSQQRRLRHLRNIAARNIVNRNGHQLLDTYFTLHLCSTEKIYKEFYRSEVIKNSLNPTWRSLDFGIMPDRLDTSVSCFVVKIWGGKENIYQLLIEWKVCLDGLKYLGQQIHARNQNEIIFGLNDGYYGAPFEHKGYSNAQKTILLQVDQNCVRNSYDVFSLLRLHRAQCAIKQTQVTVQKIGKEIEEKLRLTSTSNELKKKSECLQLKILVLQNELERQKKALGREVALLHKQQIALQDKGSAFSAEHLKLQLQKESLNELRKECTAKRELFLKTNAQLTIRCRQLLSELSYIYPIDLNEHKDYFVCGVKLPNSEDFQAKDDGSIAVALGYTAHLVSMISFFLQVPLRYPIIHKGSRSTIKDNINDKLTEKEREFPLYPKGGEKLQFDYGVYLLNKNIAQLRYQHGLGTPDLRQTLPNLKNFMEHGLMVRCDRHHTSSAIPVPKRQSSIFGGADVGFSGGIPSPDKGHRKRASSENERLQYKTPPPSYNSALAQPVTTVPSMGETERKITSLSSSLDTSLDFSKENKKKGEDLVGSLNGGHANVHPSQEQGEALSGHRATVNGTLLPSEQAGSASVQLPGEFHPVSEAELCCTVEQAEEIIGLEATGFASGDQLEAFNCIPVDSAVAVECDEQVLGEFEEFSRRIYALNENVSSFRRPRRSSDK
UniProt Q9C0B0: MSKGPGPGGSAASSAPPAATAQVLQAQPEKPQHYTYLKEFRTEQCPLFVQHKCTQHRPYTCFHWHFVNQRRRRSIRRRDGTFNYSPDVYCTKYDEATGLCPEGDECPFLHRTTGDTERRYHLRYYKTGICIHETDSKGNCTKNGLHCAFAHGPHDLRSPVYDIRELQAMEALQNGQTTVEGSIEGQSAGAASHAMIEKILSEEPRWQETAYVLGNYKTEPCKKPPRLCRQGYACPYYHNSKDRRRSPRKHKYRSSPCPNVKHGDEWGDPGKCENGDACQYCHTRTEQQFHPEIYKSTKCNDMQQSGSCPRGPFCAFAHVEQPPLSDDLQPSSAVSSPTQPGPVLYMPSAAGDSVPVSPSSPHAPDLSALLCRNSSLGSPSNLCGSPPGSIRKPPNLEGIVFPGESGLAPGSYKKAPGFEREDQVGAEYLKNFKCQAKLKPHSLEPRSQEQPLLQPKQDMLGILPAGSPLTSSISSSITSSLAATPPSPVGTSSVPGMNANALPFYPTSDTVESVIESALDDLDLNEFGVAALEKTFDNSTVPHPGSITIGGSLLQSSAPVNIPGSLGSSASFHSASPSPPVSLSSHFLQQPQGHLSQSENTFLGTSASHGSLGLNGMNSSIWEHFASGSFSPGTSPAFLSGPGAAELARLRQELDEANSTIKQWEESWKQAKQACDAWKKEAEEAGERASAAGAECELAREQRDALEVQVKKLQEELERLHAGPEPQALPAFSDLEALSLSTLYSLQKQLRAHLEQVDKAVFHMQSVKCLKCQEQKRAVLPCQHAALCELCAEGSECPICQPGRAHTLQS
UniProt Q9Y4E8: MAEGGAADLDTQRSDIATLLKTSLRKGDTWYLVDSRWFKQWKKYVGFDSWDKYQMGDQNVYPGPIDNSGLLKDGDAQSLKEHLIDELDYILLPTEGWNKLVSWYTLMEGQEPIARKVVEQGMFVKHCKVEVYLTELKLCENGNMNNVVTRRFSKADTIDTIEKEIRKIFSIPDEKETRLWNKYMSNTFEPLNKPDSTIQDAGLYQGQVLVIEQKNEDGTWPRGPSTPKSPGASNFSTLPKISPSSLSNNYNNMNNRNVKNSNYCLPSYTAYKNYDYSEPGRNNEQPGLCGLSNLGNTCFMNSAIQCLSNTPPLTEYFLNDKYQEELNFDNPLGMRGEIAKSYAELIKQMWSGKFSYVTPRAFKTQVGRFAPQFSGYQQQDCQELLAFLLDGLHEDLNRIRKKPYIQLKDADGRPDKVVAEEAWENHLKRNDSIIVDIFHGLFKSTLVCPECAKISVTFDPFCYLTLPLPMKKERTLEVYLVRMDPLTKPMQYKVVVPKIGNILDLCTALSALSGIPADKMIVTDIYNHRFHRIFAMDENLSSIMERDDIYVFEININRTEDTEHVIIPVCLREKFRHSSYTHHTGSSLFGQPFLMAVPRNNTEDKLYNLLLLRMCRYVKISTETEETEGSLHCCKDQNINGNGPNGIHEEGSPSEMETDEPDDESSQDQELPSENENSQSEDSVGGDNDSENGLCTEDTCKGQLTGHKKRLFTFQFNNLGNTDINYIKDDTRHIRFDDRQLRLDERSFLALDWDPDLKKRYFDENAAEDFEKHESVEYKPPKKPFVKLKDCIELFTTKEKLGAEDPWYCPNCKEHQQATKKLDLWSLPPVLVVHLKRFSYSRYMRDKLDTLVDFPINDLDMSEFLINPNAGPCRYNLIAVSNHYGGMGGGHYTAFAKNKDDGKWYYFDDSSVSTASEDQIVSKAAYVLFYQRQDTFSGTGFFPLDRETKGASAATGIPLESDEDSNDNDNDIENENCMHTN

Tests used:
Test in all cases: log2 fold change, soluble protein after heating vs DMSO (PISA); higher = thermal stabilisation; K562 lysate, 10 uM; active = over 0.2 and 3.5 SD of the protein, either way, in both replicates (recomputed)
[1] = compound: CS(=O)(=O)CCNCc1ccc(-c2ccc3ncnc(Nc4ccc(OCc5cccc(F)c5)c(Cl)c4)c3c2)o1 [lapatinib]
Procedure, shortened: (§1)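 The values are log-two fold changes in thermal stability compared with solvent controls and come from duplicates. They were obtained by TMTpro 16plex LC-MS/MS, with channel sums equalised, on the supernatant after 21,000xg for 90 min. That supernatant came from crude K562 extract at 1 mg/mL protein treated with 10 μM compound for 30 min, heated for 3 min across 48°C-58°C, pooled and brought to 0.5% NP-40 at 4°C.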

[2] = compound: CS(=O)(=O)N1CCN(Cc2cc3nc(-c4cccc5[nH]ncc45)nc(N4CCOCC4)c3s2)CC1 [pictilisib]
Procedure, shortened: as §1

[3] = compound: C[C@@H](Oc1cc(-c2cnn(C3CCNCC3)c2)cnc1N)c1c(Cl)ccc(F)c1Cl [crizotinib]
Procedure, shortened: as §1

[4] = compound: C[C@H](C1=CC=C(C=C1)C(=O)NC2=C3C=CNC3=NC=C2)N
Procedure, shortened: as §1

[5] = compound: C[C@H](Nc1ncnc2nc[nH]c12)c1cc2cccc(Cl)c2c(=O)n1-c1ccccc1 [duvelisib]
Procedure, shortened: as §1

[6] = compound: Cc1cc(Nc2cc(CN3CCOCC3)c3nc(C)c(Cc4ccc(Cl)cc4F)n3n2)n[nH]1 [gandotinib]
Procedure, shortened: as §1

[7] = compound: Cc1cc(Nc2cc(N3CCN(C)CC3)nc(Sc3ccc(NC(=O)C4CC4)cc3)n2)n[nH]1 [tozasertib]
Procedure, shortened: as §1

[8] = compound: Cc1ccc(-n2nc(C(C)(C)C)cc2NC(=O)Nc2ccc(OCCN3CCOCC3)c3ccccc23)cc1 [doramapimod]
Procedure, shortened: as §1

[9] = compound: Cc1ccc(NC(=O)c2ccc(CN3CC[C@H](N(C)C)C3)c(C(F)(F)F)c2)cc1Nc1nccc(-c2cncnc2)n1 [bafetinib]
Procedure, shortened: as §1

[10] = compound: Cc1cccc(CC(=O)N2CCc3c2ccc(-c2cn(C)c4ncnc(N)c24)c3F)n1
Procedure, shortened: as §1

[11] = compound: Cc1cn(-c2cc(NC(=O)c3ccc(C)c(Nc4nccc(-c5cccnc5)n4)c3)cc(C(F)(F)F)c2)cn1 [nilotinib]
Procedure, shortened: as §1

[12] = compound: Cc1nc(Nc2n[nH]c3c2CN(C(=O)N[C@H](CN(C)C)c2ccccc2)C3(C)C)c2sccc2n1
Procedure, shortened: as §1

[13] = compound: Cc1nc(Nc2ncc(C(=O)Nc3c(C)cccc3Cl)s2)cc(N2CCN(CCO)CC2)n1 [dasatinib]
Procedure, shortened: as §1

[14] = compound: Cc1ncc(-c2ccnc(Nc3ccc(S(C)(=O)=O)cc3)n2)n1C(C)C
Procedure, shortened: as §1

[15] = compound: Cn1cc(-c2ccc3c(c2)CCN3C(=O)Cc2cccc(C(F)(F)F)c2)c2c(N)ncnc21
Procedure, shortened: as §1

[16] = compound: Cn1cc(CNCC2CCN(c3ncc(C(=O)NO)cn3)CC2)c2ccccc21 [quisinostat]
Procedure, shortened: as §1

[17] = compound: Cn1cncc1[C@@](N)(c1ccc(Cl)cc1)c1ccc2c(c1)c(-c1cccc(Cl)c1)cc(=O)n2C [tipifarnib]
Procedure, shortened: as §1

[18] = compound: NC(=O)Nc1cc(-c2cccc(F)c2)sc1C(=O)N[C@H]1CCCNC1
Procedure, shortened: as §1

[19] = compound: NC(=O)c1cnc(N[C@@H]2CCCC[C@@H]2N)nc1Nc1cccc(-n2nccn2)c1
Procedure, shortened: as §1

[20] = compound: NC1(c2ccc(-c3nc4ccn5c(=O)[nH]nc5c4cc3-c3ccccc3)cc2)CCC1
Procedure, shortened: as §1

Measured: log2 fold change

USP24 (UniProt Q9UPU5)
inactive: [1] -0.019 | [2] -0.032 | [3] -0.044 | [4] 0.018 | [5] -0.009 | [6] -0.11 | [7] 0.005 | [8] 0.017 | [9] -0.03 | [10] 0.015 | [11] -0.024 | [12] 0.007 | [13] -0.046 | [14] 0 | [15] 0.008 | [16] -0.004 | [17] 0.004 | [18] 0.028 | [19] 0.006 | [20] -0.003

VCP (UniProt P55072)
inactive: [1] 0.01 | [2] 0.009 | [3] 0.028 | [4] 0.057 | [5] 0.013 | [6] -0.02 | [7] -0.014 | [8] 0.001 | [9] 0.04 | [10] -0.058 | [11] 0.01 | [12] 0.001 | [13] 0.018 | [14] 0.009 | [15] -0.028 | [16] 0.014 | [17] 0.014 | [18] -0.023 | [19] -0.017 | [20] 0.002

VCPIP1 (UniProt Q96JH7)
inactive: [1] -0.061 | [2] -0.053 | [3] -0.052 | [4] -0.059 | [5] -0.002 | [6] -0.038 | [7] -0.028 | [8] 0.025 | [9] -0.043 | [10] 0.1 | [11] -0.006 | [12] 0.044 | [13] -0.045 | [14] -0.025 | [15] 0.016 | [16] -0.046 | [17] 0.011 | [18] 0.031 | [19] 0.029 | [20] -0.059

UQCRC1 (UniProt P31930)
inactive: [1] -0.036 | [2] 0.01 | [3] 0.01 | [4] -0.017 | [5] -0.011 | [6] 0.01 | [7] 0.01 | [8] 0.02 | [9] 0.059 | [10] 0.017 | [11] 0.024 | [12] -0.032 | [13] -0.006 | [14] -0.023 | [15] -0.021 | [16] 0.055 | [17] -0.027 | [18] -0.016 | [19] 0.025 | [20] 0.008

VAMP7 (UniProt P51809)
inactive: [1] 0.018 | [2] -0.05 | [3] 0.004 | [4] -0.06 | [5] 0.007 | [6] 0.002 | [7] -0.012 | [8] 0.051 | [9] 0.004 | [10] 0.02 | [11] 0.012 | [12] -0.025 | [13] -0.007 | [14] -0.057 | [15] 0.007 | [16] -0.015 | [17] 0 | [18] -0.017 | [19] 0.009 | [20] 0.02

UVRAG (UniProt Q9P2Y5)
inactive: [1] -0.042 | [2] -0.001 | [3] -0.05 | [4] 0.02 | [5] 0.131 | [6] 0.11 | [7] 0.037 | [8] 0.019 | [9] -0.006 | [10] -0.022 | [11] -0.079 | [12] -0.008 | [13] 0.004 | [14] -0.008 | [15] -0.05 | [16] -0.017 | [17] 0 | [18] 0.025 | [19] -0.016 | [20] 0.057

UTP20 (UniProt O75691)
inactive: [1] -0.041 | [2] -0.095 | [3] -0.077 | [4] 0.16 | [5] -0.056 | [6] -0.184 | [7] 0.11 | [8] -0.007 | [9] -0.061 | [10] 0.052 | [11] 0.05 | [12] 0.034 | [13] 0.081 | [14] 0.074 | [15] 0.078 | [16] 0.034 | [17] 0.023 | [18] 0.045 | [19] 0.002 | [20] -0.055

UNK (UniProt Q9C0B0)
inactive: [1] 0.03 | [2] 0.03 | [3] -0.021 | [4] -0.016 | [5] -0.006 | [6] -0.017 | [7] -0.002 | [8] -0.03 | [9] -0.052 | [10] 0.077 | [11] 0.005 | [12] -0.08 | [13] -0.063 | [14] 0.087 | [15] 0.013 | [16] 0.043 | [17] -0.031 | [18] 0.016 | [19] 0.027 | [20] 0.052

USP10 isoform 2 (UniProt Q14694)
inactive: [1] -0.01 | [2] -0.015 | [3] -0.03 | [4] -0.024 | [5] 0.009 | [6] -0.046 | [7] -0.014 | [8] -0.016 | [9] -0.014 | [10] 0.028 | [11] -0.022 | [12] 0.013 | [13] -0.058 | [14] 0.013 | [15] -0.013 | [16] -0.081 | [17] -0.007 | [18] 0.034 | [19] -0.011 | [20] -0.012

USP15 (UniProt Q9Y4E8)
inactive: [1] 0.005 | [2] 0.004 | [3] 0.023 | [4] 0.026 | [5] -0.006 | [6] -0.049 | [7] 0.009 | [8] -0.029 | [9] 0.049 | [10] 0 | [11] -0.012 | [12] 0.001 | [13] 0.001 | [14] -0.004 | [15] 0.002 | [16] 0.033 | [17] -0.002 | [18] 0.021 | [19] -0.001 | [20] 0.009

UTP15 (UniProt Q8TED0)
inactive: [1] 0.008 | [2] 0.026 | [3] 0.031 | [4] -0.098 | [5] 0.059 | [6] 0.033 | [7] -0.011 | [8] -0.009 | [9] -0.037 | [10] 0.028 | [11] 0.001 | [12] 0.002 | [13] 0 | [14] -0.024 | [15] -0.027 | [16] 0.007 | [17] 0.003 | [18] -0.011 | [19] -0.044 | [20] 0.076

UQCC1 (UniProt Q9NVA1)
inactive: [1] 0.005 | [2] -0.013 | [3] 0.064 | [4] 0.004 | [5] 0.015 | [6] 0.004 | [7] -0.009 | [8] -0.089 | [9] 0.049 | [10] -0.039 | [11] 0.02 | [12] 0.011 | [13] 0.015 | [14] -0.015 | [15] -0.026 | [16] 0.107 | [17] 0.002 | [18] -0.011 | [19] -0.005 | [20] 0.001

UCKL1 (UniProt Q9NWZ5)
inactive: [1] -0.018 | [2] 0.01 | [3] -0.053 | [4] 0.003 | [5] -0.019 | [6] -0.013 | [7] -0.076 | [8] 0.014 | [9] -0.016 | [10] 0.019 | [11] -0.024 | [12] 0.007 | [13] 0.008 | [14] 0.022 | [15] -0.002 | [16] -0.05 | [17] -0.011 | [18] 0.018 | [19] -0.003 | [20] 0.011

VARS (UniProt P26640)
inactive: [1] -0.017 | [2] -0.027 | [3] -0.068 | [4] -0.004 | [5] 0.002 | [6] -0.092 | [7] -0.021 | [8] 0.022 | [9] -0.012 | [10] 0.029 | [11] -0.012 | [12] -0.004 | [13] -0.072 | [14] 0 | [15] 0.06 | [16] -0.021 | [17] 0.012 | [18] 0.045 | [19] 0.001 | [20] -0.028

UTP6 (UniProt Q9NYH9)
inactive: [1] 0 | [2] -0.088 | [3] -0.118 | [4] -0.144 | [5] -0.044 | [6] -0.073 | [7] -0.002 | [8] -0.023 | [9] -0.135 | [10] 0.133 | [11] 0.006 | [12] 0.032 | [13] 0.106 | [14] 0.045 | [15] -0.004 | [16] -0.113 | [17] 0.005 | [18] 0.051 | [19] 0.143 | [20] 0.151

VCX3B (UniProt Q9H321)
inactive: [1] 0.018 | [2] 0.035 | [3] 0.025 | [4] -0.045 | [5] 0.101 | [6] 0.072 | [7] 0.044 | [8] -0.04 | [9] -0.002 | [10] 0.021 | [11] -0.009 | [12] 0.06 | [13] -0.1 | [14] 0.002 | [15] -0.033 | [16] 0.048 | [17] 0.092 | [18] -0.044 | [19] -0.011 | [20] 0.007

Fetched one by one from the entries so far (2):
VAMP7 (UniProt P51809)
inactive: [1] 0.018 | [2] -0.05 | [3] 0.004 | [4] -0.06 | [5] 0.007 | [6] 0.002 | [7] -0.012 | [8] 0.051 | [9] 0.004 | [10] 0.02 | [11] 0.012 | [12] -0.025 | [13] -0.007 | [14] -0.057 | [15] 0.007 | [16] -0.015 | [17] 0 | [18] -0.017 | [19] 0.009 | [20] 0.02

UVRAG (UniProt Q9P2Y5)
inactive: [1] -0.042 | [2] -0.001 | [3] -0.05 | [4] 0.02 | [5] 0.131 | [6] 0.11 | [7] 0.037 | [8] 0.019 | [9] -0.006 | [10] -0.022 | [11] -0.079 | [12] -0.008 | [13] 0.004 | [14] -0.008 | [15] -0.05 | [16] -0.017 | [17] 0 | [18] 0.025 | [19] -0.016 | [20] 0.057
